Data as given in PubChem BioAssay AID652259 (Drosophila RNAi Screening Center, 2013).

Screen: 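Knock-downs that push a Wingless-driven reporter up or down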 (primary screen)
System: Drosophila clone 8 imaginal disc epithelial cells
Reagents: long dsRNA against Drosophila genes
Challenge: pathway stimulated by co-transfected Wingless expression plasmid
Measurement: 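Firefly luciferase from a tcf-site Wingless reporter, measured alongside co-transfected Renilla luciferase that tracks transfection; pathway stimulated by a Wingless plasmid; the firefly-to-Renilla ratio is not deposited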
Reading the numbers: firefly reporter light: higher = more Wg reporter light, before normalisation; Renilla control light: higher = more transfected or surviving cells
Rule for the call: 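Strong candidates differ from their plate mean by at least two out of four per-plate statistical tests; weak candidates meet just one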
Meaning of the calls: active = candidate regulator (raises or lowers reporter); inactive = not a candidate
The deposit covers about 22,000 reagents; shown is a random part of those with a known target gene and a result. In the full data, 233 (1.1%) got an active call. 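Light values are raw, unnormalised plate reads; the ratio scores behind the reporter calls were not deposited.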 Names joined by + are all predicted targets of the reagent. No sequences are given here. Not stated in the record: the amount of reagent, the time to read-out, the dose of the treatment.

| gene | dsRNA | reporter change call, replicate 1 | firefly reporter light, replicate 1 | firefly reporter light, replicate 2 | Renilla control light, replicate 1 | Renilla control light, replicate 2 | outcome |
| --- | --- | --- | --- | --- | --- | --- | --- |
| Ube4A (GeneID 33932) | DRSC02004 | – | 11061 | – | 5013 | – | inactive |
| Rrp42 (GeneID 36766) | DRSC07161 | – | 5378 | – | 1536 | – | inactive |
| CG3376 (GeneID 37884) | DRSC04362 | – | 16458 | – | 1719 | – | inactive |
| CG15097 (GeneID 37172) | DRSC06526 | – | 17920 | – | 5924 | – | inactive |
| CG13689 (GeneID 33241) | DRSC00358 | – | 2538 | 7675 | 890 | 2914 | inactive |
| Rtnl1 (GeneID 33721) | DRSC00851 | – | 19780 | – | 9456 | – | inactive |
| Rtnl1 (GeneID 33721) | DRSC02684 | – | 18629 | – | 9188 | – | inactive |
| Rtnl1 (GeneID 33721) | DRSC03122 | – | 8288 | – | 3101 | – | inactive |
| Rtnl1 (GeneID 33721) | DRSC21698 | – | 7.50e5 | 7.37e5 | 4.78e5 | 3.27e5 | inactive |
| eve (GeneID 36039) | DRSC07614 | – | 5232 | 5720 | 568 | 2298 | inactive |
| boi (GeneID 31229) | DRSC18425 | – | 18208 | – | 15488 | – | inactive |
| boi (GeneID 31229) | DRSC18598 | – | 11069 | – | 10845 | – | inactive |
| CG17564 (GeneID 35205) | DRSC02626 | – | 4922 | 18956 | 960 | 3476 | inactive |
| Eip78C (GeneID 40345) | DRSC11864 | Wg reporter activity raised | 15394 | – | 1347 | – | active |
| dpr17 (GeneID 41470) | DRSC12885 | – | 2400 | – | 736 | – | inactive |
| dpr17 (GeneID 41470) | DRSC14957 | – | 10717 | – | 1378 | – | inactive |
| dpr17 (GeneID 41470) | DRSC14958 | – | 17964 | – | 5040 | – | inactive |
| CG12680 (GeneID 31427) | DRSC17871 | – | 17412 | – | 7824 | – | inactive |
| CG17026 (GeneID 39739) | DRSC10237 | – | 8525 | 7.19e5 | 3924 | 3.13e5 | inactive |
| lute (GeneID 42089) | DRSC14812 | – | 13607 | – | 2945 | – | inactive |
| lute (GeneID 42089) | DRSC15769 | – | 3574 | 6853 | 1205 | 1873 | inactive |
| CG31663 (GeneID 33363) | DRSC00078 | – | 26913 | – | 13239 | – | inactive |
| CG31663 (GeneID 33363) | DRSC00389 | – | 14736 | – | 6840 | – | inactive |
| CG31663 (GeneID 33363) | DRSC00390 | – | 5141 | – | 1804 | – | inactive |
| CG31663 (GeneID 33363) | DRSC00393 | – | 3228 | 8994 | 1364 | 3512 | inactive |
| Or85a (GeneID 40991) | DRSC16764 | – | 13984 | – | 3783 | – | inactive |
| tamo (GeneID 37864) | DRSC04446 | – | 18000 | – | 5157 | – | inactive |
| Ssk (GeneID 40207) | DRSC10756 | – | 4295 | – | 1856 | – | inactive |
| sug (GeneID 36424) | DRSC06855 | – | 13164 | – | 2675 | – | inactive |
| CG11425 (GeneID 40472) | DRSC11657 | – | 14938 | – | 5328 | – | inactive |
| sala + CG43355 | DRSC01188 | – | 21904 | 7.09e5 | 14427 | 2.64e5 | inactive |
| sala + CG43355 | DRSC03605 | – | 2848 | 4550 | 935 | 3249 | inactive |
| jigr1 (GeneID 43093) | DRSC13724 | – | 4785 | – | 2224 | – | inactive |
| jigr1 (GeneID 43093) | DRSC15233 | – | 22038 | – | 21987 | – | inactive |
| jigr1 (GeneID 43093) | DRSC22617 | – | 6.60e5 | 5.88e5 | 2.49e5 | 1.01e5 | inactive |
| CG9849 (GeneID 37647) | DRSC04573 | – | 3216 | 8333 | 1266 | 3888 | inactive |
| Art3 (GeneID 41837) | DRSC16065 | – | 7542 | – | 2683 | – | inactive |
| PAN2 (GeneID 35893) | DRSC07115 | – | 9781 | – | 3948 | – | inactive |
| tinc (GeneID 42148) | DRSC14798 | – | 12849 | – | 2804 | – | inactive |
| tinc (GeneID 42148) | DRSC14799 | – | 16195 | – | 3580 | – | inactive |
| tinc (GeneID 42148) | DRSC16308 | – | 16395 | – | 2576 | – | inactive |
| tinc (GeneID 42148) | DRSC16309 | – | 13466 | – | 2643 | – | inactive |
| Sgs4 (GeneID 31304) | DRSC18715 | – | 21075 | – | 13104 | – | inactive |
| mthl11 (GeneID 117467) | DRSC12779 | – | 3961 | – | 1496 | – | inactive |
| C901 (GeneID 32032) | DRSC19351 | – | 18368 | – | 9445 | – | inactive |
| Pvr (GeneID 34127) | DRSC03080 | Wg reporter activity raised | 18944 | – | 2856 | – | active |
| CG14253 (GeneID 43243) | DRSC14748 | – | 8836 | – | 2627 | – | inactive |
| 5-HT1A (GeneID 37196) | DRSC05030 | – | 5110 | – | 1963 | – | inactive |
| CG17633 (GeneID 34297) | DRSC02631 | – | 2134 | 8121 | 705 | 2827 | inactive |
| CG10405 (GeneID 41996) | DRSC14238 | – | 17916 | – | 5049 | – | inactive |
| fig (GeneID 43511) | DRSC16270 | – | 5732 | – | 2326 | – | inactive |
| CG31784 (GeneID 318939) | DRSC01574 | – | 18918 | – | 6930 | – | inactive |
| CG15390 (GeneID 33422) | DRSC00404 | – | 2534 | 4218 | 1028 | 2198 | inactive |
| CG14180 (retired record) (GeneID 39101) | DRSC10179 | – | 7462 | – | 1780 | – | inactive |
| CG14450 (GeneID 40490) | DRSC11707 | – | 10864 | – | 2716 | – | inactive |
| Dtd (GeneID 41371) | DRSC15362 | – | 10733 | – | 2272 | – | inactive |
| Ncoa6 (GeneID 33761) | DRSC02353 | – | 8321 | – | 902 | – | inactive |
| CG33465 (GeneID 3885587) | DRSC05587 | – | 24788 | – | 20754 | – | inactive |
| CG13295 (GeneID 38692) | DRSC09969 | – | 1504 | 8885 | 1267 | 4288 | inactive |
| ecd (GeneID 38291) | DRSC08574 | – | 13936 | – | 3403 | – | inactive |
| RpS14a (GeneID 47218) | DRSC18710 | – | 13985 | – | 8780 | – | inactive |
| Grl43a (GeneID 35705) | DRSC06383 | – | 2187 | 9003 | 834 | 2620 | inactive |
| CG12071 (GeneID 43660) | DRSC14471 | Wg reporter activity raised | 6821 | – | 864 | – | active |
| nAChRalpha5 (GeneID 34826) | DRSC01360 | – | 22348 | – | 14691 | – | inactive |
| nAChRalpha5 (GeneID 34826) | DRSC01946 | – | 2613 | 7792 | 1329 | 4181 | inactive |
| nAChRalpha5 (GeneID 34826) | DRSC01947 | – | 4836 | 13848 | 1408 | 4962 | inactive |
| nAChRalpha5 (GeneID 34826) | DRSC22785 | – | 7.62e5 | 7.95e5 | 2.36e5 | 2.09e5 | inactive |
| CG1513 (GeneID 36028) | DRSC05194 | – | 19572 | – | 7059 | – | inactive |
| CG1513 (GeneID 36028) | DRSC06553 | – | 8145 | – | 1680 | – | inactive |
| CG1513 (GeneID 36028) | DRSC06554 | – | 3529 | 8908 | 1260 | 3124 | inactive |
| CG6179 (GeneID 32819) | DRSC19973 | – | 26896 | – | 11228 | – | inactive |
| slgA (GeneID 33117) | DRSC20586 | – | 3585 | 10208 | 1611 | 3478 | inactive |
| MagR (GeneID 32513) | DRSC20092 | – | 19520 | – | 10092 | – | inactive |
